By UniProt entry, the sequences of proteins in these tests, tags left out.
UniProt P49137, whole entry: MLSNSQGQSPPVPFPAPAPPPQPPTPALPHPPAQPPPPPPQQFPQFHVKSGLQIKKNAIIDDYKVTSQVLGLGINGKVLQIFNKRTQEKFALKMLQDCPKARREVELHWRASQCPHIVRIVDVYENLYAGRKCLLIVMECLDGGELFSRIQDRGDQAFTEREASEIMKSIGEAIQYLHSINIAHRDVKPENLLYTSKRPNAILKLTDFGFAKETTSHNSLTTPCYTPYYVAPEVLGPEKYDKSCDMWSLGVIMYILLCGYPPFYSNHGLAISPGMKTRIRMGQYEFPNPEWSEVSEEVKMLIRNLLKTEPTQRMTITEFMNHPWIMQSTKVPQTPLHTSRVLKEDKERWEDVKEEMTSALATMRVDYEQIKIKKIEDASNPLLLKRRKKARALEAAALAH

For at least one compound, name, drawing or mass did not settle the structure.
Each compound was assayed against MK2 (Homo sapiens (Human), UniProt P49137) (assay: MK2 modification assessment by whole protein mass spectrometry). Details: intact MK2, 60 min, 10-fold excess of compound to protein.
Type: binding
Procedure: Modification of MK2 is measured by whole protein MS analysis. […] 5 μL aliquots of the samples were diluted with 15 μL of 0.2% TFA prior to micro C4 ZipTipping directly onto the MALDI target using sinapinic acid as the desorption matrix (10 mg/ml in 0.1% TFA:Acetonitrile 50:50). Analysis was performed on a AB Sciex 4800 MALDI TOF/TOF retro fitted with an HM2 detector (CovalX). Percent modification of target MK2 (i.e., the percent of total MK2 modified by the test compound) for each compound was calculated by subtracting the centroid mass of the compound treated MK2 from the centroid mass of the control MK2 and dividing that value with the mass of the compound.
In the case of C=CC(=O)N1CCOc2ccc(-c3cc4c(cn3)CCc3c-4[nH]c4c3C(=O)NCC4)cc21 [II-20, 2-(4-acryloyl-3,4-dihydro-2H-benzo[b][1,4]oxazin-6-yl)-8,9,10,11-tetrahydro-SH-pyrido[3′,4′:4,5]pyrrolo[2,3-f]isoquinolin-7(6H)-one], the “MK2 Mass Mod” value was “E (mass modification of ≥70%)”.
With C=CC(=O)Nc1cc(-c2cc3c(ccc4c5c([nH]c43)CCC5=O)cn2)ccc1C [II-e-19, N-(2-methyl-5-(7-oxo-7,8,9,1-tetrahydrocyclopenta[4,5]pyrrolo[2,3-f]isoquinolin-2-yl)phenyl)acrylamide] the “MK2 Mass Mod” value was “E (mass modification of ≥70%)”.
For C=CC(=O)Nc1cc(C)cc(-c2cc3c(ccc4c5c([nH]c43)CCC5=O)cn2)c1 [II-e-22, N-(3-methyl-5-(7-oxo-7,8,9,1-tetrahydrocyclopenta[4,5]pyrrolo[2,3-f]isoquinolin-2-yl)phenyl)acrylamide], the “MK2 Mass Mod” value was “E (mass modification of ≥70%)”.
In the case of C=CC(=O)Nc1cc(NC(=O)c2ccc3sc4c(c3c2)NC[C@@H](C)NC4=O)ccc1C1CCN(C)CC1 [III-56, (R)—N-(3-acrylamido-4-(1-methylpiperidin-4-yl)phenyl)-3-methyl-5-oxo-2,3,4,5-tetrahydro-1H-benzo[4,5]thieno[3,2-e][1,4]diazepine-9-carboxamide], the “MK2 Mass Mod” value was “E (mass modification of ≥70%)”.
In the case of C=CC(=O)Nc1c(C)c(NC2CCCNC2)nc2ccnn12 (stereo not drawn) [IV-b-1, N-(6-methyl-5-(piperidin-3-ylamino)pyrazolo [1,5-a]pyrimidin-7-yl)acrylamide], the “MK2 Mass Mod” value was “F (mass modification of 31-69%)”.

What follows are compounds tested against cys140 of MK2 (Homo sapiens (Human), UniProt P49137) (assay: In-solution trypsin digest / MS-MS of compound-treated MK2). Details: not given.
Type: binding
With C=CC(=O)N1CCOc2ccc(-c3cc4c(cn3)CCc3c-4[nH]c4c3C(=O)NCC4)cc21 [II-20, 2-(4-acryloyl-3,4-dihydro-2H-benzo[b][1,4]oxazin-6-yl)-8,9,10,11-tetrahydro-SH-pyrido[3′,4′:4,5]pyrrolo[2,3-f]isoquinolin-7(6H)-one] the “covalent modification of MK2, site” value was “covalently binds to MK2 and that this modification occurs at CYS140”.
